Data: article PMC10011487
No constants are given. Whether binding was seen depends on the method and setting. Binding seen in cells or lysates may run through a third protein. Some results given as binding are weak or reduced against the parent protein; the word gives no strength.

By UniProt entry, the sequences of proteins in these tests, tags left out.
UniProt Q9Y6E0: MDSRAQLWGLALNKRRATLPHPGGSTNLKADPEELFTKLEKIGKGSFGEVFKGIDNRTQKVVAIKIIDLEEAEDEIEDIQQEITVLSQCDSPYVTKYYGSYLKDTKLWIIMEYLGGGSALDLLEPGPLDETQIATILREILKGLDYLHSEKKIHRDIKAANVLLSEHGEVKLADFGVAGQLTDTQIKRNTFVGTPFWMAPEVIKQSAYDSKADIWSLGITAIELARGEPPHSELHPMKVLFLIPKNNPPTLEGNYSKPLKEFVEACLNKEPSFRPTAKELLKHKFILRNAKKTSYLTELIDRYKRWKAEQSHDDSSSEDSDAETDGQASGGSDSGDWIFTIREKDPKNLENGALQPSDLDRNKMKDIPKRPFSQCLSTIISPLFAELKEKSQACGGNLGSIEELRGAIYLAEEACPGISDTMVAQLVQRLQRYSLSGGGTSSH
UniProt P40763: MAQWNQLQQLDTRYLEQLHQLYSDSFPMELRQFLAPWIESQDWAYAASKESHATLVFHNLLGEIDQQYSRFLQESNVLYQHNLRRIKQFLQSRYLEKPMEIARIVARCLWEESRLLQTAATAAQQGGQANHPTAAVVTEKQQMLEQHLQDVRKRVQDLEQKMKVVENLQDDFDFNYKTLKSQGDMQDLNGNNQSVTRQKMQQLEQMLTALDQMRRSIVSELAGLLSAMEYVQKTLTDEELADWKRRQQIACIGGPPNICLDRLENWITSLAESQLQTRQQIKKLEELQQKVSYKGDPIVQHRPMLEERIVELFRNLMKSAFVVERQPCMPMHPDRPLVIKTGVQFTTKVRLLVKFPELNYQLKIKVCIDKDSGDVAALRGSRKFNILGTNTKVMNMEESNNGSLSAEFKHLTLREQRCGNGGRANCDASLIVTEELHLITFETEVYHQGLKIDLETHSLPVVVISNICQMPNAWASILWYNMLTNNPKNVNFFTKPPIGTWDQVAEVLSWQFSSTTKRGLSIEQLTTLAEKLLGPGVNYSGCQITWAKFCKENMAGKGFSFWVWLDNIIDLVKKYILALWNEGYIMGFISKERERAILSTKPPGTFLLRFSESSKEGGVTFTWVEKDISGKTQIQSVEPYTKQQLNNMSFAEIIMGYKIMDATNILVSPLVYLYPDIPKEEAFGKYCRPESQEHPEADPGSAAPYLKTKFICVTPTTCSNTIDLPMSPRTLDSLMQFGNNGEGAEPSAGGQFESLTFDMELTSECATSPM

Molecular target: Serine/threonine-protein kinase 24 (STK24) (human (endogenous in A549 / H226)) (UniProt Q9Y6E0)
Assay: co-IP; whole cell lysates (NP-40 lysis buffer) of indicated NSCLC cells incubated overnight at 4 °C with primary antibody on Protein L Magnetic Beads, then Western blot

- binding: binds
Substance: Signal transducer and activator of transcription 3 (STAT3) (from UniProt P40763 1-770)
